Experimental data from PubChem BioAssay AID1487 (National Center for Advancing Translational Sciences (NCATS), 2009).
This is one part of the list. Further columns of the screen follow, without active or inactive calls. Most of these compounds were active or inconclusive in the main read-out, so they are no random draw. The note in brackets gives the kind of curve behind each potency; many fits are weak.

Assay: qHTS Assay for Modulators of Lamin A Splicing
Conditions: HeLa LMNA splicing GFP/RFP minigene ratio, 48 h
Summary of the method: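 S3 HeLa cells stably expressing lamin A-EGFP splicing minigene plus DsRed2, 600 cells/well, 48 h compound exposure at 37C. Laser-scanning cytometry; analysed as GFP (500-530 nm)/RFP (575-640 nm) total intensity ratio; 0.5% DMSO vehicle.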

[1] = measured here: RFP viability control channel
[2] = measured here: GFP splicing reporter channel

| SMILES | AC50 [1] | AC50 [2] |
| --- | --- | --- |
| CN(C)C(=O)COC(=O)c1ccccc1Nc1ccc(SC(F)F)cc1 | 2.82 µM [rising, full curve] |  |
| COc1ccc(C(=O)Nc2cccnc2)cc1S(=O)(=O)N1CCOCC1 | 0.00355 µM [falling, full curve, poor fit] |  |
| COc1cccc(OC)c1C(=O)Nc1c(C)n(C)n(-c2ccccc2)c1=O |  | 3.16 µM [falling, partial curve, poor fit] |
| COc1cc(NC(=S)N2CCN(C(c3ccccc3)c3ccccc3)CC2)cc(OC)c1 | 25.1 µM [rising, single point] | 35.5 µM [rising, single point] |
| Cn1c(SCC(=O)N2CCN(c3ccccc3)CC2)nnc1-c1ccccc1 | 17.8 µM [rising, partial curve] | 14.1 µM [rising, partial curve] |
| CC(=O)c1ccc(NC(=O)c2sc(-n3nc(C)c(Cc4ccccc4)c3C)nc2C)cc1 | 1.78 µM [falling, partial curve] | 0.891 µM [falling, full curve, poor fit] |
| NNC(=O)c1oc2ccccc2c1-n1cccc1 |  | 0.0224 µM [falling, full curve, poor fit] |
| CC(/C=N/NC(=O)Cn1cnc2ccccc21)=C\c1ccccc1 | 22.4 µM [rising, single point] |  |
| COc1cccc(Cn2c(CNC(=O)c3cc([N+](=O)[O-])ccc3Cl)nc3cccnc32)c1 |  | 50.1 µM [falling, partial curve] |
| CCNC(=O)C(Cc1ccccc1)NC(=O)OCc1ccccc1 (stereo unspecified) |  | 0.0708 µM [rising, partial curve, poor fit] |
| O=C(Cc1c(F)cccc1Cl)Nc1ncc([N+](=O)[O-])s1 | 4.47 µM [falling, partial curve, poor fit] | 5.01 µM [falling, partial curve, poor fit] |
| CC(C)=CC(=O)Nc1nnc(-c2ccccc2C)s1 | 0.00447 µM [rising, full curve, poor fit] |  |
| Cc1nn(-c2ccc(F)cc2)c(C)c1NS(=O)(=O)c1ccc(Cl)cc1 | 4.47 µM [falling, single point] | 28.2 µM [falling, single point] |
| CCOC(=O)CN1C(=O)N[C@@H](c2ccccc2)[C@H](C(C)=O)[C@H]1C |  | 0.891 µM [rising, single point] |
| COC(=O)/C(=C\C=C\c1ccccc1)NC(=O)c1ccccc1 | 0.141 µM [falling, single point] |  |
| Cc1ccc(/C=N/Nc2ncc(Cl)cc2Cl)s1 | 14.1 µM [rising, single point] | 12.6 µM [rising, single point] |
| COC(=O)c1cccc(-c2ccc(/C=N/N3C(=O)C4C5C=CC(C6CC56)C4C3=O)o2)c1 (stereo unspecified) | 35.5 µM [rising, single point] | 31.6 µM [rising, single point] |
| Cc1cccc(NC(=S)NNC(=O)c2ccc(O)cc2O)c1C |  | 20 µM [falling, partial curve, poor fit] |
| CCOC(=O)c1cccnc1 | 0.000794 µM [rising, full curve, poor fit] | 35.5 µM [falling, single point] |
| Nc1ccc(N2CCN(c3ccc(F)cc3)CC2)cc1 |  | 3.98 µM [falling, partial curve] |
| CN(C)CCOC(=O)COc1ccc(Cl)cc1 |  | 0.355 µM [falling, partial curve, poor fit] |
| CCOC(=O)c1sc2ccc(S(=O)(=O)N3CC(C)CC(C)C3)cc2c1N (stereo unspecified) |  | 0.282 µM [rising, full curve, poor fit] |
| CC(C)(C)C1=CC(=O)C(N2CCOCC2)=CC1=O | 17.8 µM [rising, single point] |  |
| CN1CCc2c(sc3c2C(=O)NC(c2cn(Cc4ccccc4)c4ccccc24)N3)C1 (stereo unspecified) | 12.6 µM [rising, single point] |  |
| Cc1c(C(=O)Oc2cccc3cccnc23)cccc1[N+](=O)[O-] | 22.4 µM [falling, partial curve] | 35.5 µM [falling, partial curve] |
| CN(C)c1ccc(-c2ccc3ncnc(N(C)C)c3c2)cc1 | 0.562 µM [falling, full curve] | 0.631 µM [falling, full curve] |

Exported tab-delimited: entries from further up.
SMILES	AC50 [1]	AC50 [2]
Cc1nn(-c2ccc(F)cc2)c(C)c1NS(=O)(=O)c1ccc(Cl)cc1	4.47 µM [falling, single point]	28.2 µM [falling, single point]
CCOC(=O)CN1C(=O)N[C@@H](c2ccccc2)[C@H](C(C)=O)[C@H]1C		0.891 µM [rising, single point]
